This passage reports binding results from paper PMC5724017.

Amino acid sequences for entries named in this document (tags omitted). A change or cut given only in a name is not applied to a line headed by its entry.
UniProt Q57W34: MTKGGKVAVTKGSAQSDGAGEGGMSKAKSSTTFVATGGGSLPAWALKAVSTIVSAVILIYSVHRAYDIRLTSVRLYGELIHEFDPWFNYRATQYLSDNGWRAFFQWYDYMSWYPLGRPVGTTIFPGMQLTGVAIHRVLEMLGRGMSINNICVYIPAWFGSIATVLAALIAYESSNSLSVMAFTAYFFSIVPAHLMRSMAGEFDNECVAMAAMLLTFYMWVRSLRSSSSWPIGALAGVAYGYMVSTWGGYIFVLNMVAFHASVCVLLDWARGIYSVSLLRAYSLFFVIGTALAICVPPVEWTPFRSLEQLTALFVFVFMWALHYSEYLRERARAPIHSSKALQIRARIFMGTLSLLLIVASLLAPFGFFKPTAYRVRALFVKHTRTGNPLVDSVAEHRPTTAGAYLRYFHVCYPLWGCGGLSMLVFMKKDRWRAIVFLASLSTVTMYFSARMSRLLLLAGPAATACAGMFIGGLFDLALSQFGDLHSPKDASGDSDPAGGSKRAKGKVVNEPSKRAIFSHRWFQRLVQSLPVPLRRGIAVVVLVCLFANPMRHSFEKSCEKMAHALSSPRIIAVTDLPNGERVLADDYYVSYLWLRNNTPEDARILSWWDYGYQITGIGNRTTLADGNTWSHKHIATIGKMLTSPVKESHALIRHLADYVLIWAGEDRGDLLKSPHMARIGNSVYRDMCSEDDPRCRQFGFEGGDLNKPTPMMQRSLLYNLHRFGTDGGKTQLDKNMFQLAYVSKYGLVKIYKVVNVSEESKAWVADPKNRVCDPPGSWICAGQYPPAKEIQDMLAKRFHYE
UniProt Q57W35: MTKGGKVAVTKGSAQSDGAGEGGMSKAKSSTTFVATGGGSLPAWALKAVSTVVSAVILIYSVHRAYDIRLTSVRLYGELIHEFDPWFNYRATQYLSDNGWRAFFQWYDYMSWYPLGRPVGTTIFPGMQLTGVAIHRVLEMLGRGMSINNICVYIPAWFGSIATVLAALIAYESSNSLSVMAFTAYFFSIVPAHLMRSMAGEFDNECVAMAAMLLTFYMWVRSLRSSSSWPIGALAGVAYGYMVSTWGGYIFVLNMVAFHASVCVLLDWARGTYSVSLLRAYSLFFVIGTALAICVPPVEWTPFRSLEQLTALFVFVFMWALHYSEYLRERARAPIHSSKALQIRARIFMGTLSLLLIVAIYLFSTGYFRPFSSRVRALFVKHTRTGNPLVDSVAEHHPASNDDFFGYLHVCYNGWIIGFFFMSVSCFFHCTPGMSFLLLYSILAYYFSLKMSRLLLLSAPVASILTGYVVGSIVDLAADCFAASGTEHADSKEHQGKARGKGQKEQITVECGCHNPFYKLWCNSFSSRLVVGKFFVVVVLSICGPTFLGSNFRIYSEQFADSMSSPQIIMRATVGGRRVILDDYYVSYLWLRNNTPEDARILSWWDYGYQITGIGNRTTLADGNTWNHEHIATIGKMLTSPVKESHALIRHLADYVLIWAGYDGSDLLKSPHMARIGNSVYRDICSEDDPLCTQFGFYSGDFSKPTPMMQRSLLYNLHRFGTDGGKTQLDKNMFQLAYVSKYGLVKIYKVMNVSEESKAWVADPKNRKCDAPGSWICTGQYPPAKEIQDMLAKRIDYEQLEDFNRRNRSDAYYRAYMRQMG

Results are given in words; binding and its absence hold for the method and conditions named. In cells and extracts the contact can be indirect. A yes stands for co-enrichment or nearness to the bait. Other partners may have been found.

The target in the assay is TbSTT3A-HA3 (Trypanosoma brucei) (UniProt Q57W34). The experiment in a line: affinity purification with mass spectrometry; SILAC: TbSTT3A-HA3 cells (heavy, R6K4) and wild-type cells (light, R0K0) mixed 1:1, lysed in 0.5% digitonin; anti-HA antibody and protein G magnetic beads; LC-MS/MS of the eluate.

For the substance TbSTT3B (from UniProt Q57W35) (enzyme), the binding result was “binds”.
